{"source": "PubChem BioAssay AID1259254, NCATS – 2017", "purpose": "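Finding genes that stop cells copying their DNA twice in one cycle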 (primary screen)", "cell system": "human HCT116 colorectal cancer cells", "knock-down reagent": "single siRNA against human genes", "duration": "3 days", "measured": "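Nuclei stained with Hoechst and imaged; cell-cycle phase assigned by DNA content; G2 share scaled per plate, non-targeting siRNA 0%, GMNN siRNA 100%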", "direction": "G2 robust z-score and G2 cells, % of GMNN control: higher = more G2 cells, more excess DNA replication", "call rule": "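Active siRNAs have a G2 robust z of 5 or more median absolute deviations over the median, which in these data means about 38% or higher of GMNN control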", "note": "Here is one part, drawn at random, of about 59,000 reagents tested. About 1,550 of all reagents (2.6%) were called active. 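G2 share is only a proxy for re-replication; each gene was hit by three separate siRNAs, and active genes were retested.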 A number with no mark means an inactive call. The numbers tell different reagents against one gene apart. Further read-outs or replicates are left out here. Not given: the amount of reagent."}
{"gene":"WRN (GeneID 7486)","reagent no.":1,"G2 robust z-score":4.95,"G2 cells, % of GMNN control":37.8}
{"gene":"WRN (GeneID 7486)","reagent no.":2,"G2 robust z-score":"7.17 (active)","G2 cells, % of GMNN control":53.4}
{"gene":"WRN (GeneID 7486)","reagent no.":3,"G2 robust z-score":"9.29 (active)","G2 cells, % of GMNN control":68.3}
{"gene":"C11orf21 (GeneID 29125)","reagent no.":1,"G2 robust z-score":1.96,"G2 cells, % of GMNN control":16.7}
{"gene":"C11orf21 (GeneID 29125)","reagent no.":2,"G2 robust z-score":-0.312,"G2 cells, % of GMNN control":0.772}
{"gene":"C11orf21 (GeneID 29125)","reagent no.":3,"G2 robust z-score":-0.154,"G2 cells, % of GMNN control":1.88}
{"gene":"C1RL-AS1 (GeneID 283314)","reagent no.":1,"G2 robust z-score":-0.464,"G2 cells, % of GMNN control":-0.298}
{"gene":"C1RL-AS1 (GeneID 283314)","reagent no.":2,"G2 robust z-score":3.98,"G2 cells, % of GMNN control":30.9}
{"gene":"C1RL-AS1 (GeneID 283314)","reagent no.":3,"G2 robust z-score":-1.05,"G2 cells, % of GMNN control":-4.43}
{"gene":"OR14K1 (GeneID 343170)","reagent no.":1,"G2 robust z-score":-0.574,"G2 cells, % of GMNN control":-1.07}
{"gene":"OR14K1 (GeneID 343170)","reagent no.":2,"G2 robust z-score":0.96,"G2 cells, % of GMNN control":9.72}
{"gene":"OR14K1 (GeneID 343170)","reagent no.":3,"G2 robust z-score":0.657,"G2 cells, % of GMNN control":7.59}
{"gene":"NTNG1 (GeneID 22854)","reagent no.":1,"G2 robust z-score":-0.678,"G2 cells, % of GMNN control":-1.8}
{"gene":"NTNG1 (GeneID 22854)","reagent no.":2,"G2 robust z-score":0.492,"G2 cells, % of GMNN control":6.43}
{"gene":"NTNG1 (GeneID 22854)","reagent no.":3,"G2 robust z-score":-0.287,"G2 cells, % of GMNN control":0.947}
{"gene":"LINC01011 (GeneID 401232)","reagent no.":1,"G2 robust z-score":0.173,"G2 cells, % of GMNN control":4.19}
{"gene":"LINC01011 (GeneID 401232)","reagent no.":2,"G2 robust z-score":-0.31,"G2 cells, % of GMNN control":0.787}
{"gene":"LINC01011 (GeneID 401232)","reagent no.":3,"G2 robust z-score":-1.03,"G2 cells, % of GMNN control":-4.28}
{"gene":"SPATA16 (GeneID 83893)","reagent no.":1,"G2 robust z-score":-1.29,"G2 cells, % of GMNN control":-6.08}
{"gene":"SPATA16 (GeneID 83893)","reagent no.":2,"G2 robust z-score":0.38,"G2 cells, % of GMNN control":5.64}
{"gene":"SPATA16 (GeneID 83893)","reagent no.":3,"G2 robust z-score":-0.895,"G2 cells, % of GMNN control":-3.33}
{"gene":"DYRK1B (GeneID 9149)","reagent no.":1,"G2 robust z-score":1.02,"G2 cells, % of GMNN control":10.1}
{"gene":"DYRK1B (GeneID 9149)","reagent no.":2,"G2 robust z-score":-1.08,"G2 cells, % of GMNN control":-4.64}
{"gene":"DYRK1B (GeneID 9149)","reagent no.":3,"G2 robust z-score":-0.356,"G2 cells, % of GMNN control":0.462}

3 of these entries, set out differently.
gene,reagent no.,G2 robust z-score,"G2 cells, % of GMNN control"
SPATA16 (GeneID 83893),2,0.38,5.64
SPATA16 (GeneID 83893),3,-0.895,-3.33
DYRK1B (GeneID 9149),1,1.02,10.1
